From paper PMC4231674
These are yes or no findings as the source states them, for the method shown. In cells and extracts the contact can be indirect. Some binding calls cover weakened binding; strength is not graded here. Sequences can lack the tags named with a protein.

Protein sequences, listed by entry. Tags and fused reporters are not part of them.
UniProt P68104: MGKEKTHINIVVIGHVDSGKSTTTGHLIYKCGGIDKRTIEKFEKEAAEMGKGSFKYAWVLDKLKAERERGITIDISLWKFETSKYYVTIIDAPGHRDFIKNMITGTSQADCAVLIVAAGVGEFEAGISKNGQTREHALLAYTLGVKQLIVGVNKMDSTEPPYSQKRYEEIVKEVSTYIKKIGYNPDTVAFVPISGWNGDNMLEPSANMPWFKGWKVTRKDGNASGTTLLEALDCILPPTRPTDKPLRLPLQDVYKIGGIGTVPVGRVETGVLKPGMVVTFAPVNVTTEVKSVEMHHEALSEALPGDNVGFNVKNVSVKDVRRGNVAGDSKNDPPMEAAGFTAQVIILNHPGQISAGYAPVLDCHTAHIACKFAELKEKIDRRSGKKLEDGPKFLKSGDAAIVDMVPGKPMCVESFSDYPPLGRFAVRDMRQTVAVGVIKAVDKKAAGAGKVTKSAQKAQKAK
UniProt P26641: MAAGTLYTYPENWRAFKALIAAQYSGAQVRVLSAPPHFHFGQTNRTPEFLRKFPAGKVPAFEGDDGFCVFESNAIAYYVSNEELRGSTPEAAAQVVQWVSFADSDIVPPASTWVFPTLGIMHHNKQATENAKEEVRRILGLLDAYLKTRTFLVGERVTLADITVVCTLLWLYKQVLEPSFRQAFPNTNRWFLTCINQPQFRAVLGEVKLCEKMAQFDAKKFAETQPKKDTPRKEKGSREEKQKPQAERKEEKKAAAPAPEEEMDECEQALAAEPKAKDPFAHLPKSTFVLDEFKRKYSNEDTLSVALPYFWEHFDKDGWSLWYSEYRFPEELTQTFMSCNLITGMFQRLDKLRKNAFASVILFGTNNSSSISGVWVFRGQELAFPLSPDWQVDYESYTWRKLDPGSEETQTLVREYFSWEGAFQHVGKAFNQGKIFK

Experiments:
[1] = molecular target: His-eEF1A (human eukaryotic elongation factor 1A) (human) (UniProt P68104); experiment: pull-down + SEC; three proteins co-expressed in BHK-21 cells; lysate on nickel-nitrilotriacetic acid resin, washed with 500 mM KCl then 100 mM KCl buffer (20 mM HEPES-KOH pH 7.5, 0.1% Triton X-100, 10 mM imidazole), eluted with 50-1000 mM imidazole; eluates on HiPrep 16/60 Sephacryl S-300 HR in 20 mM HEPES-KOH pH 7.5, 100 mM KCl, 10% glycerol
[2] = molecular target: His-eEF1Bγ (human eukaryotic elongation factor 1B gamma) (human) (UniProt P26641); experiment: as above

binding [1]: binds
binding [2]: binds
B1: eEF1Bα (human eukaryotic elongation factor 1B alpha), untagged (protein, UniProt P24534 1-225)
chain: MGFGDLKSPAGLQVLNDYLADKSYIEGYVPSQADVAVFEAVSSPPPADLCHALRWYNHIKSYEKEKASLPGVKKALGKYGPADVEDTTGSGATDSKDDDDIDLFGSDDEEESEEAKRLREERLAQYESKKAKKPALVAKSSILLDVKPWDDETDMAKLEECVRSIQADGLVWGSSKLVPVGYGIKKLQIQCVVEDDKVGTDMLEEQITAFEDYVQSMDVAAFNKI
